Measured values reported in patent US20100210525A1 (University of California, published 2010).
These are yes or no findings as the source states them, for the method shown. Some entries that bind do so weakly or less than the wild type. One block for each molecule: values may come before it.

Chains of the proteins cited; added tags and fusions are not shown. Lines headed by an entry give the natural chain unless they say otherwise; changes in a name come on top. Residues count along the entry.
UniProt P26039, residues 309-405: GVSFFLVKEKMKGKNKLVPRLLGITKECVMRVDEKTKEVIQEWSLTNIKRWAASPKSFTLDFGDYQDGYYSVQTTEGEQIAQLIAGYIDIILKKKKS
Full-length β3 integrin cytoplasmic tail (P05106, residues 742-788): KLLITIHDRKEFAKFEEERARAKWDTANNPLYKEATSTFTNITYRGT
MP peptide (membrane-proximal β3 integrin tail peptide) (P05106, residues 742-765): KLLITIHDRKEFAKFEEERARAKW
UniProt O70161: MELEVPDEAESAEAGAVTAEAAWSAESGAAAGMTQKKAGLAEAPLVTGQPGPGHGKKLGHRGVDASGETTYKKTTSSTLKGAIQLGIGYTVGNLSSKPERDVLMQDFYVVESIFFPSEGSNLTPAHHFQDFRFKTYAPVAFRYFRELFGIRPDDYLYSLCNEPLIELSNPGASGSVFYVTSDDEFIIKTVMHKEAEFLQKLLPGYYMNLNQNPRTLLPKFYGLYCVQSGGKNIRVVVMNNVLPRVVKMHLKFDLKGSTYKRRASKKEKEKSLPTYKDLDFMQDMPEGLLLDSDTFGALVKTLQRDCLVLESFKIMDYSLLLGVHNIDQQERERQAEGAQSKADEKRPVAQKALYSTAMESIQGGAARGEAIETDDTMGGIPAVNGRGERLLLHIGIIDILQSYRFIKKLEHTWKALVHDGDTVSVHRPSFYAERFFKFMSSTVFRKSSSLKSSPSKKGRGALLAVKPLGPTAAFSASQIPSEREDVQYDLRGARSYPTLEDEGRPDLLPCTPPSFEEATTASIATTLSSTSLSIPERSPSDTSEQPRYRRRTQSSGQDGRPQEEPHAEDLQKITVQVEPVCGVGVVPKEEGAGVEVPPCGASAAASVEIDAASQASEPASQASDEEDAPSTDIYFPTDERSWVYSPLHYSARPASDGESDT

Experiments:
[1] = biological target: T1, Talin F3 sub-domain, wild type (mouse, UniProt P26039 309-405, limits assumed); experiment: 1H-15N HSQC NMR of 15N talin F3 on addition of the peptide, % decrease of peak intensity per residue [second panel]
T1 construct: domain: F3 sub-domain; U-15N labelled for NMR; also called Talin F3 wt; talin F3 domain

[2] = biological target: T1, Talin F3 sub-domain, wild type; experiment: 1H-15N HSQC NMR, decrease in peak height; intermediate exchange
[3] = biological target: T1, Talin F3 sub-domain, wild type; experiment: 1H-15N HSQC NMR titration of 15N talin F3 with the peptide, weighted shift map per residue [first panel]
[4] = biological target: T1, Talin F3 sub-domain, wild type; experiment: 1H-15N HSQC NMR titration of talin F3
[5] = biological target: T1, Talin F3 sub-domain, wild type; experiment: 1H-15N HSQC NMR titration of 15N talin F3 with the peptide, weighted shift map per residue
[6] = biological target: T1, Talin F3 sub-domain, wild type; experiment: 1H-15N HSQC NMR of 15N talin F3 on addition of the peptide, weighted shift map per residue [fourth panel]
[7] = biological target: T1, Talin F3 sub-domain, wild type; experiment: heteronuclear 15N-1H NOEs of talin F3 in complex with the peptide

- binding [1]: binds
- binding [2]: binds
Molecule: Full-length β3 integrin cytoplasmic tail (from UniProt P05106 742-788) (peptide)

- binding [3]: binds
- binding [4]: binds
- binding [5]: binds
Molecule: MP peptide (membrane-proximal β3 integrin tail peptide) (from UniProt P05106 742-765)

- binding [6]: binds
B1: PIPKIγ peptide (peptide, UniProt O70161 642-654, looked up)
peptide: WVYSPLHYSARPA
- binding [7]: binds
